Test results taken from patent publication US20070253958A1 (Bristol-Myers Squibb, published 2007).
No constants are given. Whether binding was seen depends on the method and setting. Some binding calls cover weakened binding; strength is not graded here.

Sequences of proteins named here, by UniProt entry; tags and fusion partners are left off. Residues count along the entry.
UniProt P12318, residues 34-317: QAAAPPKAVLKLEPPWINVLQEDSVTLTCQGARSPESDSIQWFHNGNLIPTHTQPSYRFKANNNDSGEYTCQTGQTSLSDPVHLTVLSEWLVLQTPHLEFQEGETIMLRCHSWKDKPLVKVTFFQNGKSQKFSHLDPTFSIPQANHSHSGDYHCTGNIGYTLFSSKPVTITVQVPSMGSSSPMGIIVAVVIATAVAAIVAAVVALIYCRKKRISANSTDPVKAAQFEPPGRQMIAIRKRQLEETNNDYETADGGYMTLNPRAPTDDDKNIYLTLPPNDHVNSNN

How the values were obtained:
[1] = biological target: FcγRIIa (CD32) on THP-1 cells and human monocytes, allotype not stated (human) (UniProt P12318); experiment: flow cytometry on THP-1 cells (FcγRI and FcγRIIa), FITC goat F(ab')2 anti-human kappa, Binding (%)
[2] = biological target: FcγRIIa (CD32) on THP-1 cells and human monocytes, allotype not stated (human) (UniProt P12318); experiment: flow cytometry on THP-1 cells

- binding [1]: binds
- binding [2]: binds
B1: MDE-8 F(ab')2 fragments (protein)
VH: QVHLVESGGGVVQPGRSLRLSCAASGFTFSSYGMHWVRQAPGKGLEWVAVIWYDGSNYYYTDSVKGRFTISRDNSKNTLYLQMNSLRAEDTAVYYCARDLGAAASDYWGQGTLVTVSS
VL: AIQLTQSPSSLSASVGDRVTITCRASQGINSALAWYQQKPGKAPKLLIYDASSLESGVPSRFSGSGSGTDFTLTISSLQPEDFATYYCQQFNSYPHTFGQGTKLEIK
